Among the data in US20190375846A1 are binding values, retold here.

B1: G_G10 scFv (scFv, V domains shown)
VH: EVQLVESGGGLVQPGGSLRLSCAASGFSLSTFGYGVGWVRQAPGKGLEWLAHIWWDDDKYYVDSVKGRFTISRDNAKNSLYLQMNSLRAEDTAVYYCARTRQYFPFAYWGQGTLVTVSS
VL: EIVLTQSPATLSLSPGERATLSCRASQSVGTNLAWYQQKPGQAPRLLIYYASYRYTGIPARFSGSGSGTDFTLTISSLEPEDFAVYYCQQYSNDPLTFGGGTKVEIK
B2: C_B10 scFv (scFv, V domains shown)
VH: EVQLVESGGGLVQPGGSLRLSCAASGFSLSTSGMGMSWVRQAPGKGLEWLAHIWWDDDKYYVDSVKGRFTISRDNAKNSLYLQMNSLRAEDTAVYYCARNRRYFPFAYWGQGTLVTVSS
VL: EIVLTQSPATLSLSPGERATLSCRASQNVGSNLAWYQQKPGQAPRLLIYSASYRATGIPARFSGSGSGTDFTLTISSLEPEDFAVYYCQQYSNDPLTFGGGTKVEIK
B3: H_G4 scFv (scFv, V domains shown)
VH: EVQLVESGGGLVQPGGSLRLSCAASGFTFSTSGMGMSWVRQAPGKGLEWVAHIWWDDEKYYVDSVKGRFTISRDNAKNSLYLQMNSLRAEDTAVYYCARNRRYFPFAYWGQGTLVTVSS
VL: EIVLTQSPATLSLSPGERATLSCRASQNVGSNVAWYQQKPGQAPRLLIYSASYRATGIPARFSGSGSGTDFTLTISSLEPEDFAVYYCQQYSTDPLTFGGGTKVEIK
B4: G_A6 scFv (scFv, V domains shown)
VH: EVQLVESGGGLVQPGGSLRLSCAASGFSLSTFSYGVSWVRQAPGKGLEWLAHIWWDSDKYYVDSVKGRFTISRDNAKNSLYLQMNSLRAEDTAVYYCARTRMYFPFAYWGQGTLVTVSS
VL: EIVLTQSPATLSLSPGERATLSCRASQNVGTYLAWYQQKPGQAPRLLIYDASYRYTGIPARFSGSGSGTDFTLTISSLEPEDFAVYYCQQYSNDPLTFGGGTKVEIK
B5: E_A1 scFv (scFv, V domains shown)
VH: EVQLVESGGGLVQPGGSLRLSCAASGFTLSTSGMGMSWVRQAPGKGLEWLAHIWWDDDKYYVDSVKGRFTISRDNAKNSLYLQMNSLRAEDTAVYYCARNRRYFPFAYWGQGTLVTVSS
VL: EIVLTQSPATLSLSPGERATLSCRASQSVGSNLAWYQQKPGQAPRLLIYSASYRASGIPARFSGSGSGTDFTLTISSLEPEDFAVYYCQQYSNDPLTFGGGTKVEIK
B6: H_G1 scFv (scFv, V domains shown)
VH: EVQLVESGGGLVQPGGSLRLSCAASGFSFSTSGYGMGWVRQAPGKGLEWLANIWWDDDKYYVDSVKGRFTISRDNAKNSLYLQMNSLRAEDTAVYYCARGRRYFPFAYWGQGTLVTVSS
VL: EIVLTQSPATLSLSPGERATLSCRASQNVGSNLAWYQQKPGQAPRLLIYSASYRATGIPARFSGSGSGTDFTLTISSLEPEDFAVYYCQQYSNWPLTFGGGTKVEIK
B7: F_B11 scFv (scFv, V domains shown)
VH: EVQLVESGGGLVQPGGSLRLSCAASGFSLSTSGMGVSWVRQAPGKGLEWVAHIWWDDEKYYVDSVKGRFTISRDNAKNSLYLQMNSLRAEDTAVYYCARNRRYFPFAYWGQGTLVTVSS
VL: EIVLTQSPATLSLSPGERATLSCRASQSVGSNLAWYQQKPGQAPRLLIYSASYRATGIPARFSGSGSGTDFTLTISSLEPEDFAVYYCQQYSTDPLTFGGGTKVEIK
B8: E_G11 scFv (scFv, V domains shown)
VH: EVQLVESGGGLVQPGGSLRLSCAASGFSLSTSGMGVSWVRQAPGKGLEWLAHIWWDDEKYYVDSVKGRFTISRDNAKNSLYLQMNSLRAEDTAVYYCARNRRYFPFAYWGQGTLVTVSS
VL: EIVLTQSPATLSLSPGERATLSCRASQNVGTNVAWYQQKPGQAPRLLIYSASNRATGIPARFSGSGSGTDFTLTISSLEPEDFAVYYCQQYSNDPLTFGGGTKVEIK
B9: E_B10 scFv (scFv, V domains shown)
VH: EVQLVESGGGLVQPGGSLRLSCAASGFSLSTSGYGVSWVRQAPGKGLEWLAHIWWDDEKYYVDSVKGRFTISRDNAKNSLYLQMNSLRAEDTAVYYCARNRRYFPFAYWGQGTLVTVSS
VL: EIVLTQSPATLSLSPGERATLSCRASQSVGTNLAWYQQKPGQAPRLLIYSASYRASGIPARFSGSGSGTDFTLTISSLEPEDFAVYYCQQYSTDPLTFGGGTKVEIK
B10: E_D10 scFv (scFv, V domains shown)
VH: EVQLVESGGGLVQPGGSLRLSCAASGFSLSTSGYGVGWVRQAPGKGLEWLAHIWWDDDKYYVDSVKGRFTISRDNAKNSLYLQMNSLRAEDTAVYYCARTVRYFPFAYWGQGTLVTVSS
VL: EIVLTQSPATLSLSPGERATLSCRASQSVGSNVAWYQQKPGQAPRLLIYSASNRYSGIPARFSGSGSGTDFTLTISSLEPEDFAVYYCQQYSTDPLTFGGGTKVEIK
B11: F_F2 scFv (scFv, V domains shown)
VH: EVQLVESGGGLVQPGGSLRLSCAASGFSLSTSGMGMSWVRQAPGKGLEWVAHIWWDDEKYYVDSVKGRFTISRDNAKNSLYLQMNSLRAEDTAVYYCARNRRYFPFAYWGQGTLVTVSS
VL: EIVLTQSPATLSLSPGERATLSCRASQSVGSNLAWYQQKPGQAPRLLIYSASNRASGIPARFSGSGSGTDFTLTISSLEPEDFAVYYCQHYSTDPLTFGGGTKVEIK
B12: K_D6 scFv (scFv, V domains shown)
VH: EVQLVESGGGLVQPGGSLRLSCAASGFSLSTSGMGMSWVRQAPGKGLEWLAHIWWDDDKYYVDSVKGRFTISRDNAKNSLYLQMNSLRAEDTAVYYCARNRRYFPFAYWGQGTLVTVSS
VL: EIVLTQSPATLSLSPGERATLSCRASQSVGSNVAWYQQKPGQAPRLLIYSASYRASGIPARFSGSGSGTDFTLTISSLEPEDFAVYYCQQYSNDPLTFGGGTKVEIK
B13: C_B12 scFv (scFv, V domains shown)
VH: EVQLVESGGGLVQPGGSLRLSCAASGFTFSTSGMGVSWVRQAPGKGLEWVAHIWWDDEKYYVDSVKGRFTISRDNAKNSLYLQMNSLRAEDTAVYYCARNRRYFPFAYWGQGTLVTVSS
VL: EIVLTQSPATLSLSPGERATLSCRASQSVGSNVAWYQQKPGQAPRLLIYSASNRYTGIPARFSGSGSGTDFTLTISSLEPEDFAVYYCQQYSTDPLTFGGGTKVEIK
B14: H_C5 scFv (scFv, V domains shown)
VH: EVQLVESGGGLVQPGGSLRLSCAASGFSLSTSGMGMSWVRQAPGKGLEWVAHIWWDDEKYYVDSVKGRFTISRDNAKNSLYLQMNSLRAEDTAVYYCARNRRYFPFAYWGQGTLVTVSS
VL: EIVLTQSPATLSLSPGERATLSCRASQSVGTNVAWYQQKPGQAPRLLIYNASNRASGIPARFSGSGSGTDFTLTISSLEPEDFAVYYCQQYSTDPLTFGGGTKVEIK
B15: E_F10 scFv (scFv, V domains shown)
VH: EVQLVESGGGLVQPGGSLRLSCAASGFSLSTSGYGVGWVRQAPGKGLEWVANIWWDDDKYYVDSVKGRFTISRDNAKNSLYLQMNSLRAEDTAVYYCARGRRYFPFAYWGQGTLVTVSS
VL: EIVLTQSPATLSLSPGERATLSCRASQNVGSYLAWYQQKPGQAPRLLIYSAYYRATGIPARFSGSGSGTDFTLTISSLEPEDFAVYYCQQYNTWPLTFGGGTKVEIK
B16: E_G3 scFv (scFv, V domains shown)
VH: EVQLVESGGGLVQPGGSLRLSCAASGFSLSTSGYGVGWVRQAPGKGLEWLANIWWDDDKYYVDSVKGRFTISRDNAKNSLYLQMNSLRAEDTAVYYCARARRYFPFAYWGQGTLVTVSS
VL: EIVLTQSPATLSLSPGERATLSCRASQNVGTYLAWYQQKPGQAPRLLIYSASYRASGIPARFSGSGSGTDFTLTISSLEPEDFAVYYCQQYSTWPLTFGGGTKVEIK
B17: E_C8 scFv (scFv, V domains shown)
VH: EVQLVESGGGLVQPGGSLRLSCAASGFSLSTSGYGVGWVRQAPGKGLEWVAHIWWDDDKYYVDSVKGRFTISRDNAKNSLYLQMNSLRAEDTAVYYCARTRRYYPFAYWGQGTLVTVSS
VL: EIVLTQSPATLSLSPGERATLSCRASQSVGTYVAWYQQKPGQAPRLLIYSASYRASGIPARFSGSGSGTDFTLTISSLEPEDFAVYYCQQYSTSPLTFGGGTKVEIK
B18: D_G11 scFv (scFv, V domains shown)
VH: EVQLVESGGGLVQPGGSLRLSCAASGFSLSTSSMGMGWVRQAPGKGLEWVAHIWWDDEKYYVDSVKGRFTISRDNAKNSLYLQMNSLRAEDTAVYYCARHRIYFPFAYWGQGTLVTVSS
VL: EIVLTQSPATLSLSPGERATLSCRASQSVGTYVAWYQQKPGQAPRLLIYDASNRYSGIPARFSGSGSGTDFTLTISSLEPEDFAVYYCQQYSTDPLTFGGGTKVEIK
B19: C_A9 scFv (scFv, V domains shown)
VH: EVQLVESGGGLVQPGGSLRLSCAASGFTFSTSSYGMSWVRQAPGKGLEWLANIWWDDEKYYVDSVKGRFTISRDNAKNSLYLQMNSLRAEDTAVYYCARTRMYFPFAYWGQGTLVTVSS
VL: EIVLTQSPATLSLSPGERATLSCRASQSVGSYLAWYQQKPGQAPRLLIYEASYRASGIPARFSGSGSGTDFTLTISSLEPEDFAVYYCQQYNNDPLTFGGGTKVEIK
B20: D_A11 scFv (scFv, V domains shown)
VH: EVQLVESGGGLVQPGGSLRLSCAASGFTLSTSGMGMSWVRQAPGKGLEWVAHIWWDDEKYYVDSVKGRFTISRDNAKNSLYLQMNSLRAEDTAVYYCARNRRYFPFAYWGQGTLVTVSS
VL: EIVLTQSPATLSLSPGERATLSCRASQNVGTNVAWYQQKPGQAPRLLIYSASYRASGIPARFSGSGSGTDFTLTISSLEPEDFAVYYCQQYSTDPLTFGGGTKVEIK
B21: C_D10 scFv (scFv, V domains shown)
VH: EVQLVESGGGLVQPGGSLRLSCAASGFSLSTSGMGMSWVRQAPGKGLEWLAHIWWDDDKYYVDSVKGRFTISRDNAKNSLYLQMNSLRAEDTAVYYCARNRRYFPFAYWGQGTLVTVSS
VL: EIVLTQSPATLSLSPGERATLSCRASQNVGTNVAWYQQKPGQAPRLLIYDASYRYTGIPARFSGSGSGTDFTLTISSLEPEDFAVYYCQQYSTDPLTFGGGTKVEIK

No constants are given. Whether binding was seen depends on the method and setting. Some entries that bind do so weakly or less than the wild type. Tags and fused reporters may be left off the sequences shown.

This assay addresses T1, human GITR-Fc (human) (UniProt Q9Y5U5).
T1 sequence (looked up): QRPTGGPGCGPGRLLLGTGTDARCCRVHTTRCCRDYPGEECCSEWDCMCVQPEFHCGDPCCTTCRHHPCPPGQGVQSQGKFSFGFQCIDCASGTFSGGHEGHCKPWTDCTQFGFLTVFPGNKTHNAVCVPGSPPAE
The experiment in a line: post-selection screening ELISA, scFv. Background: An ELISA detects its analyte on a solid surface through an enzyme-linked reagent.
For B1, the binding entry is reported as “binds”.

As to B2, the binding result is recorded as “binds”. The entry for B3 is “binds”; for B4 it is “binds”.

B5: the binding entry is recorded as “binds”. The entry for B6 is “binds”. The entry for B7 is “binds”. The entry for B8 is “binds”; for B9 it is “binds”. Turning to B10, the binding entry is “binds”. The entry for B11 is “binds”; for B12 it is “binds”. The entry for B13 is “binds”; for B14 it is “binds”; for B15 it is “binds”. The entry for B16 is “binds”. Take B17: the binding entry was “binds”. The entry for B18 is “binds”; for B19 it is “binds”; for B20 it is “binds”. As for B21, the binding entry is “binds”.
